This is a selection; strong and weak results do not stand in their true shares. Potency and affinity values are given separately. The source made the active and inactive calls.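 The calls were made as follows: active = a dose-response curve fit returns a half-maximal inhibitory concentration, extrapolated values included; inactive = the fit returns no such concentration.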
Target: HMG-CoA reductase [Enterococcus faecalis] (UniProt Q9FD70)
Test: inhibitors of E. faecalis class II HMGR, confirmation, biochemical, Enterococcus faecalis (AID 1233);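 also: 0% = full reaction carrier wells and 100% = background wells lacking mevalonate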
Conditions: purified E. faecalis HMGR, NADPH absorbance 340 nm kinetics; at 100 µM (top of the series)

CN(C)CCOC(c1ccccc1)c1ccccc1
inhibition: inactive: -3.81%

— PubChem BioAssay AID1233 (SRMLSC, 2008)
